Test results: ChEMBL document CHEMBL4513152, “CO-ADD screening of Yantai University (China) compounds”
Some of the results follow. Entries with a potency or affinity are not part of this list.

What follows are molecules tested on Pseudomonas aeruginosa. Conditions: Concentration 32 ug.mL-1; ASSAY_TEST Inhibition of Bacterial Growth; detection method Absorption (OD600); MEDIA CAMHB; plate type 384well; NBS; CORNING #3640; time 18 hr.

Compound | Inhibition [%]
CC(=O)O[C@H]1C[C@@]2(C)C(C[C@@H](O)C3[C@@]4(C)CC[C@@H](OC(=O)C(N)C(C)C)[C@@H](C)C4CC[C@@]32C)/C1=C(\CCC=C(C)C)C(=O)OCc1ccccc1 (some centres undefined) | 9.96
CC(=O)O[C@H]1C[C@@]2(C)C(C[C@@H](O)C3[C@@]4(C)CC[C@@H](OC(=O)C(C)N)[C@@H](C)C4CC[C@@]32C)/C1=C(\CCC=C(C)C)C(=O)OCc1ccccc1 (some centres undefined) | -8.64
CC(=O)O[C@H]1C[C@@]2(C)C(C[C@@H](O)C3[C@@]4(C)CC[C@@H](OC(=O)CCCCO[N+](=O)[O-])[C@@H](C)C4CC[C@@]32C)/C1=C(\CCC=C(C)C)C(=O)OCc1ccccc1 (some centres undefined) | -7
CC(=O)O[C@H]1C[C@@]2(C)C(C[C@@H](O)C3[C@@]4(C)CC[C@@H](OC(=O)c5ccccc5C(=O)Nc5cccc(N)c5)[C@@H](C)C4CC[C@@]32C)/C1=C(\CCC=C(C)C)C(=O)OCc1ccccc1 (some centres undefined) | -2.99
CC(=O)O[C@H]1C[C@@]2(C)C(C[C@@H](O)C3[C@@]4(C)CC[C@@H](O)[C@@H](C)C4CC[C@@]32C)/C1=C(\CCC=C(C)C)C(=O)Oc1ccc(CCO[N+](=O)[O-])cc1 (some centres undefined) | 21.63
CC(=O)O[C@H]1C[C@@]2(C)C(C[C@@H](O)C3[C@@]4(C)CC[C@@H](OC(=O)C(N)CC(C)C)[C@@H](C)C4CC[C@@]32C)/C1=C(\CCC=C(C)C)C(=O)OCc1ccccc1 (some centres undefined) | 1.52
CC(=O)O[C@H]1C[C@@]2(C)C(C[C@@H](O)C3[C@@]4(C)CC[C@@H](OC(=O)CO[N+](=O)[O-])[C@@H](C)C4CC[C@@]32C)/C1=C(\CCC=C(C)C)C(=O)OCc1ccccc1 (some centres undefined) | 19.94
CC(=O)O[C@H]1C[C@@]2(C)C(C[C@@H](O)C3[C@@]4(C)CC[C@@H](OC(=O)c5ccccc5C(=O)OCCc5ccc(OCCO[N+](=O)[O-])cc5)[C@@H](C)C4CC[C@@]32C)/C1=C(\CCC=C(C)C)C(=O)OCc1ccccc1 (some centres undefined) | -2.35
CC(=O)O[C@H]1C[C@@]2(C)C(C[C@@H](O)C3[C@@]4(C)CC[C@@H](OC(=O)CCC(=O)OCCc5ccc(OCCO[N+](=O)[O-])cc5)[C@@H](C)C4CC[C@@]32C)/C1=C(\CCC=C(C)C)C(=O)OCc1ccccc1 (some centres undefined) | -6.68
CC(=O)O[C@H]1C[C@@]2(C)C(C[C@@H](O)C3[C@@]4(C)CC[C@@H](OC(=O)CCC(=O)Oc5ccc(CCO[N+](=O)[O-])cc5)[C@@H](C)C4CC[C@@]32C)/C1=C(\CCC=C(C)C)C(=O)OCc1ccccc1 (some centres undefined) | -14.93
CC(=O)O[C@H]1C[C@@]2(C)C(C[C@@H](O)C3[C@@]4(C)CC[C@@H](OC(=O)CCCCCO[N+](=O)[O-])[C@@H](C)C4CC[C@@]32C)/C1=C(\CCC=C(C)C)C(=O)OCc1ccccc1 (some centres undefined) | -10.11
CC(=O)O[C@H]1C[C@@]2(C)C(C[C@@H](O)C3[C@@]4(C)CC[C@@H](O)[C@@H](C)C4CC[C@@]32C)/C1=C(\CCC=C(C)C)C(=O)On1nnc2ccccc21 (some centres undefined) | 1.28
CC(=O)O[C@H]1C[C@@]2(C)C(CC(=O)C3[C@@]4(C)CC[C@@H](OC(=O)CCCCO[N+](=O)[O-])[C@@H](C)C4CC[C@@]32C)/C1=C(\CCC=C(C)C)C(=O)OCc1ccccc1 (some centres undefined) | -3.24
CC(=O)O[C@H]1C[C@@]2(C)C(C[C@@H](O)C3[C@@]4(C)CC[C@@H](OC(=O)c5ccccc5C(=O)Nc5ccc(N)cc5)[C@@H](C)C4CC[C@@]32C)/C1=C(\CCC=C(C)C)C(=O)OCc1ccccc1 (some centres undefined) | -5.95
CC(=O)O[C@H]1C[C@@]2(C)C(C[C@@H](O)C3[C@@]4(C)CC[C@@H](OC(=O)c5ccccc5C(=O)Oc5ccc(CCO[N+](=O)[O-])cc5)[C@@H](C)C4CC[C@@]32C)/C1=C(\CCC=C(C)C)C(=O)OCc1ccccc1 (some centres undefined) | -5.04
CC(=O)O[C@H]1C[C@@]2(C)C(CC(=O)C3[C@@]4(C)CC[C@@H](OC(=O)CCCCCO[N+](=O)[O-])[C@@H](C)C4CC[C@@]32C)/C1=C(\CCC=C(C)C)C(=O)OCc1ccccc1 (some centres undefined) | -3.27
CC(=O)O[C@H]1C[C@@]2(C)C(C[C@@H](O)C3[C@@]4(C)CC[C@@H](OC(=O)CCC(=O)O)[C@@H](C)C4CC[C@@]32C)/C1=C(\CCC=C(C)C)C(=O)OCc1ccccc1 (some centres undefined) | 2.25
CC(=O)O[C@H]1C[C@@]2(C)C(C[C@@H](O)C3[C@@]4(C)CC[C@@H](O)[C@@H](C)C4CC[C@@]32C)/C1=C(\CCC=C(C)C)C(=O)OCc1ccccc1 (some centres undefined) | 15.35
CC(=O)O[C@H]1C[C@@]2(C)C(CC(=O)C3[C@@]4(C)CCC(=O)[C@@H](C)C4CC[C@@]32C)/C1=C(\CCC=C(C)C)C(=O)OCc1ccccc1 (some centres undefined) | 6.01

Look-ups from the entries so far:
In Inhibition [%], CC(=O)O[C@H]1C[C@@]2(C)C(C[C@@H](O)C3[C@@]4(C)CC[C@@H](OC(=O)C(N)C(C)C)[C@@H](C)C4CC[C@@]32C)/C1=C(\CCC=C(C)C)C(=O)OCc1ccccc1 (some centres undefined) shows 9.96
In Inhibition [%], CC(=O)O[C@H]1C[C@@]2(C)C(C[C@@H](O)C3[C@@]4(C)CC[C@@H](OC(=O)C(N)CC(C)C)[C@@H](C)C4CC[C@@]32C)/C1=C(\CCC=C(C)C)C(=O)OCc1ccccc1 (some centres undefined) shows 1.52
